According to patent US20210087270A1:
Results are given in words; binding and its absence hold for the method and conditions named. Some entries that bind do so weakly or less than the wild type.

The chains behind the UniProt entries cited, without tags or fusion partners. Where a name states a change or a piece, a line headed by the entry shows the natural chain unless it says otherwise.
UniProt P43630: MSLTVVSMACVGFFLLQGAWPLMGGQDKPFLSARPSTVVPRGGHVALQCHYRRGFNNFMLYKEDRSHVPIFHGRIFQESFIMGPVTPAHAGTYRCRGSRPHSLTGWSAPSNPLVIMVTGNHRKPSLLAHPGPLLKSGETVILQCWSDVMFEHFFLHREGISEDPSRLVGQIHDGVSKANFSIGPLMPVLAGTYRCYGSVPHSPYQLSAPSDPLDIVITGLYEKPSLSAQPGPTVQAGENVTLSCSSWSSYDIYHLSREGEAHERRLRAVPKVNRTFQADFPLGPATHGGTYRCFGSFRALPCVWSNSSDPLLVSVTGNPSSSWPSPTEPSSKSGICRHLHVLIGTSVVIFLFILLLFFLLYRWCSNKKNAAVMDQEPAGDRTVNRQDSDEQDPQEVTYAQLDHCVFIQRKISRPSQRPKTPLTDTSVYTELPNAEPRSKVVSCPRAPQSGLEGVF

How the values were obtained:
[1] = target: human KIR3DL2 (CD158k), wild type, at the cell surface (human) (UniProt P43630); assay: flow cytometry on HUT78 cells, 1, 24 or 48 h
[2] = target: human KIR3DL2 (CD158k), wild type, at the cell surface (human) (UniProt P43630); assay: flow cytometry on HUT78 cells, anti-human-Fc PE
[3] = target: human KIR3DL2 (CD158k), wild type, at the cell surface (human) (UniProt P43630); assay: flow cytometry on HUT78 cells after 20 h incubation
[4] = target: human KIR3DL2 (CD158k), wild type, at the cell surface (human) (UniProt P43630); assay: flow cytometry on HUT78 cells after 20 h incubation at 37° C.
[5] = target: human KIR3DL2 (CD158k), wild type, at the cell surface (human) (UniProt P43630); assay: flow cytometry on HUT78 cells, dose range 0.0005-30 µg/ml, anti-human-Fc PE
[6] = target: human KIR3DL2 (CD158k), wild type, at the cell surface (human) (UniProt P43630); assay: flow cytometry on live HUT78 cells, staining in RPMI10% at 37°C or 4°C for 2, 4 or 24 h, detection with anti-human-Fc PE, median of fluorescence
[7] = target: human KIR3DL2 (CD158k), wild type, at the cell surface (human) (UniProt P43630); assay: flow cytometry on HUT78 cells after 1, 24 or 48 h at 37°C with 2B12; bound antibody detected with goat anti-human IgG Fc-PE, free KIR3DL2 detected with 2B12-PE at 10 µg/ml
[8] = target: human KIR3DL2 (CD158k), wild type, at the cell surface (human) (UniProt P43630); assay: flow cytometry on HUT78 cells after 20 h at 37°C with the antibody; bound antibody detected with goat anti-human IgG Fc-PE, free KIR3DL2 detected with PE-labelled 2B12 (IPH4102-PE on the sheet) at 10 µg/ml

Measured: binding

B1: antibody 2B12 (human IgG1) (antibody, V domains shown)
VH: QIQLVQSGPELKKPGETVRISCKASGYTFTTAGMQWVQKTPGKGLKWIGWINSHSGVPKYAEDFKGRFAFSLETSASTAYLQISTLKNEDTATYFCARGGDEGVMDYWGQGTSVTVS
VL: DIVMTQSHKFMSTSLGDRVSFTCKASQDVSTAVAWYQQKPGQSPKLLIYWTSTRHTGVPDRFTGSGSGTDYTLTISSVQAEDLALYYCQQHYSTPWTFGGGTKLEIK
binds: [1] | [2] | [3] | [4] | [5] | [6] | [7] | [8]
